Earlier results in patent US8496963B2, “Oral formulations of glycyl-2-methylprolyl-glutamate” (priority 2007, dated 2013).
At least one structure is not confirmed: it was looked up by name or label, or the drawing left a doubt. Square brackets hold non-standard residues; d marks the D form. Peptide text beside a SMILES is read from it. αMeP = C[C@@]1(C(=O)O)CCCN1

Test system: neurons
Settings: FIG. 15 of U.S. Pat. No. 7,041,314; cited from earlier work

## C[C@@]1(C(=O)N[C@@H](CCC(=O)O)C(=O)O)CCCN1C(=O)CN [Formulation G-2MePE, Glycyl-2-Methylprolyl Glutamate] (H-Gly-[αMeP]-Glu-OH)
  broad plateau of effective concentrations in vitro: 0.01 to 10 µM
  effective neuroprotective concentrations in vitro: 10 nm to 1 mM
